In the M2OR odorant receptor database:
The other results are listed elsewhere or left out. Calls are pooled over several reports, among them a noisy single-well screen.

The molecules below were run on T1, OR9Q2. Details: stereoisomer not certain.
T1 sequence (whole entry): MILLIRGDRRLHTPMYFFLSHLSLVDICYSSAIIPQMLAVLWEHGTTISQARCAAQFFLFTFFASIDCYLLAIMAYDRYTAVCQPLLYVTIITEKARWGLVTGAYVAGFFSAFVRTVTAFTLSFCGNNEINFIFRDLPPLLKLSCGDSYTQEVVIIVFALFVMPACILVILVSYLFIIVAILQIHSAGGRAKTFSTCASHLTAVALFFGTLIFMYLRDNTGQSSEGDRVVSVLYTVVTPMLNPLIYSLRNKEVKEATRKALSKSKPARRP
Outline: (§1)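 Whether a receptor–molecule pair is responsive (active) rests on the original authors' judgment that its measured signal was statistically different from baseline. Pairs without that judgment are non-responsive (inactive). Sources used varied assay methods, commonly transient luciferase assays in mammalian cell lines.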
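Further: active if original authors judged signal statistically different from baseline.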

Row | Structure (SMILES) | odorant receptor agonist call
1 | CC(=O)OCC=C(C)CCC=C(C)C | inactive
2 | CC=Cc1ccc(O)c(OC)c1 | inactive
3 | CC(C)CCC(=O)O | inactive
4 | CCC=CCCO | inactive
5 | CCCCCCOC(=O)CCC | inactive
6 | CCCCCCCCCCC=O | inactive
7 | CC1=CCC(C(C)(C)O)CC1 (centres undefined) | inactive
8 | COC(=O)c1ccccc1 | inactive
9 | C=CCSCC=C | inactive
10 | CCC1(O)C2(C)CCC(C2)C1(C)C (centres undefined) | inactive
11 | COc1cc(C)ccc1O | inactive
12 | CCCCCCCC=CC=O | inactive
13 | O=C1CCCCCCCCCCCC(=O)OCCO1 | inactive
14 | CC(C)(C)c1ccc(CCC=O)cc1 | inactive
15 | C=CCc1ccc(OC(C)=O)c(OC)c1 | inactive
16 | CC(C)C(=O)O | inactive
17 | CC1=NC(C)SC1C (centres undefined) | active
18 | CCCCCCCCOC(C)=O | inactive
19 | CC12C=CCC1C1CCC3=CC(=O)CCC3(C)C1CC2 (centres undefined) | inactive
20 | CCCCCCCC=O | inactive
21 | CCCCCCCOC(C)=O | inactive
22 | c1ccc(Oc2ccccc2)cc1 | inactive
23 | CC(=O)OC(C)(C)C1CC=C(C)CC1 (centres undefined) | inactive
24 | CC12C=CCC1C1CCC3CC(=O)CCC3(C)C1CC2 (centres undefined) | inactive
25 | O=CCc1ccccc1 | inactive
26 | CC(=O)C(C)=O | inactive
27 | CC1CCC(C(C)C)C(O)C1 (centres undefined) | inactive

These molecules were tested on T2, ORM2B. Details: stereoisomer not certain.
T2 sequence (whole entry): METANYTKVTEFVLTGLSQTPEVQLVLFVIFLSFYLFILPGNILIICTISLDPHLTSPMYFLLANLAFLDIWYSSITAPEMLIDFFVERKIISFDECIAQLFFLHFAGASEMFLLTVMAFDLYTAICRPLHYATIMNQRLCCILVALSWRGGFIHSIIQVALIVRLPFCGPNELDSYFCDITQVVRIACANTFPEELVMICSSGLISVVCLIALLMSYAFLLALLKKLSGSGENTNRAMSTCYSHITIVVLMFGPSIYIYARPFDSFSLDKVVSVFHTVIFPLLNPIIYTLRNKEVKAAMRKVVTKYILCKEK
Outline: as §1

Row | Structure (SMILES) | odorant receptor agonist call
28 | CC(=O)OCC=C(C)CCC=C(C)C | inactive
29 | CC=Cc1ccc(O)c(OC)c1 | inactive
30 | CC(C)CCC(=O)O | inactive
31 | CCC=CCCO | inactive
32 | CCCCCCOC(=O)CCC | inactive
33 | CCCCCCCCCCC=O | inactive
34 | CC1=CCC(C(C)(C)O)CC1 (centres undefined) | inactive
35 | COC(=O)c1ccccc1 | inactive
36 | C=CCSCC=C | inactive
37 | CCC1(O)C2(C)CCC(C2)C1(C)C (centres undefined) | inactive
38 | COc1cc(C)ccc1O | inactive
39 | CCCCCCCC=CC=O | inactive
40 | O=C1CCCCCCCCCCCC(=O)OCCO1 | inactive
41 | CC(C)(C)c1ccc(CCC=O)cc1 | inactive
42 | C=CCc1ccc(OC(C)=O)c(OC)c1 | inactive
43 | CC(C)C(=O)O | inactive
44 | CC1=NC(C)SC1C (centres undefined) | inactive
45 | CCCCCCCCOC(C)=O | inactive
46 | CC12C=CCC1C1CCC3=CC(=O)CCC3(C)C1CC2 (centres undefined) | inactive
47 | CCCCCCCC=O | inactive
48 | CCCCCCCOC(C)=O | inactive
49 | c1ccc(Oc2ccccc2)cc1 | inactive
50 | CC(=O)OC(C)(C)C1CC=C(C)CC1 (centres undefined) | inactive
51 | CC12C=CCC1C1CCC3CC(=O)CCC3(C)C1CC2 (centres undefined) | inactive
52 | O=CCc1ccccc1 | inactive
53 | CC(=O)C(C)=O | inactive
54 | CC1CCC(C(C)C)C(O)C1 (centres undefined) | inactive
